Assay results: PMC5630627

Amino acid sequences for entries named in this document (tags omitted). A change or cut given only in a name is not applied to a line headed by its entry.
UniProt P53355: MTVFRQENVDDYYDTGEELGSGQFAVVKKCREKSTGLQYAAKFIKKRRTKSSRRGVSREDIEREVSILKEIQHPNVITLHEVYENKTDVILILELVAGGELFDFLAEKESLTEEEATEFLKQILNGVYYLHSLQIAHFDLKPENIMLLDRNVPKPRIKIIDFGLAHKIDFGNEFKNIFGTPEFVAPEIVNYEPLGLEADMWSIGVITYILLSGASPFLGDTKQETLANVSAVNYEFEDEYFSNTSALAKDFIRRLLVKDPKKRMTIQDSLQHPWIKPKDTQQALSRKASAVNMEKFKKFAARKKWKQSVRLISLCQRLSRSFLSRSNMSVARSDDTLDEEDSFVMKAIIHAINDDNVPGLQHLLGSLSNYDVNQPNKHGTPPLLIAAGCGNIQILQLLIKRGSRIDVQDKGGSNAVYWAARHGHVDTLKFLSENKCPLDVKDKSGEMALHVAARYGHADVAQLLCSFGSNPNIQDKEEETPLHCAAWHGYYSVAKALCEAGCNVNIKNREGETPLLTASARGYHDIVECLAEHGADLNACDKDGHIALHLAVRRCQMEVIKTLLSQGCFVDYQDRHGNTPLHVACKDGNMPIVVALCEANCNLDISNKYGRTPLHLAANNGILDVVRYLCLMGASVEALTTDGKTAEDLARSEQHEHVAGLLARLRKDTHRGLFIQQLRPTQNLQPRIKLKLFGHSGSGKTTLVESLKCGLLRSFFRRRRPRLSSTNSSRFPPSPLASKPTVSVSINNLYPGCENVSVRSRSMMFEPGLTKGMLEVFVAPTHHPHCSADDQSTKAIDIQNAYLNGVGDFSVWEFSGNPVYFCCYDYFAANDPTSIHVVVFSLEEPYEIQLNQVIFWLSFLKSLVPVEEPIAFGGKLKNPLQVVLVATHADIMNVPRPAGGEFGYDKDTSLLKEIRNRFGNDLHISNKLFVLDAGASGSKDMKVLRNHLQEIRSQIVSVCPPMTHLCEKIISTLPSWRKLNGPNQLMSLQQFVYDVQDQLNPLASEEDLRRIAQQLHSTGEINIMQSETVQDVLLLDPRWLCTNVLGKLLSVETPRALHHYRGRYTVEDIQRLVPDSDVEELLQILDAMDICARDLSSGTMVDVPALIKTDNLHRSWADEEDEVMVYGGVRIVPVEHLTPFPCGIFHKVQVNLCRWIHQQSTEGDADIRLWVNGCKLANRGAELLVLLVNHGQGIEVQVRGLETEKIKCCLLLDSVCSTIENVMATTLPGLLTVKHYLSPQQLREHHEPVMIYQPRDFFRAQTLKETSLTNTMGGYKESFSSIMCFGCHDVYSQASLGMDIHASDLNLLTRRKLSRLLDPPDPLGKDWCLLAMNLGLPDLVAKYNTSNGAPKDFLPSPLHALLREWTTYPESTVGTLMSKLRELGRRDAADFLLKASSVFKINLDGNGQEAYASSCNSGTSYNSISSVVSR
UniProt Q16611: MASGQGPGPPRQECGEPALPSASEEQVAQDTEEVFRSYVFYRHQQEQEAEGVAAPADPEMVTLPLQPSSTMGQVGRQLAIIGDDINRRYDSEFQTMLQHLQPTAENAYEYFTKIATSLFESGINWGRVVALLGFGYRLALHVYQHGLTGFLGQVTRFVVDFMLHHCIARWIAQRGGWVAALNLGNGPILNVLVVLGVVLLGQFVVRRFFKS

Target: DAPk1 kinase domain mutant K42A of Fig. 3c (UniProt P53355)
Assay: co-IP; 293T cells transfected with GFP-tagged DAPk1 deletion constructs and infected with HA-Ad-Bik; immunoprecipitation with anti-HA or anti-GFP antibodies; blots for GFP, HA, activated Bak (Fig. 3c)

binding: binds
Substance: Bak (endogenous) (from UniProt Q16611 1-211)

These are yes or no findings as the source states them, for the method shown. In cells and extracts the contact can be indirect. Binding calls can cover weak binding; strength is not graded here.
